The series can be described thus: general procedure: Fmoc solid-phase peptide synthesis; Fmoc-Ile-Wang resin. The conditions noted are these: whole synthesis, scale 14.7 g resin.

Where no end group is shown, it is not given here.

IVRRADRAAVPGGGGRGD-OH gave a crude mass of 9.5 g.
